Results on two molecules are retold here after PMC3520120.

No constants are given. Whether binding was seen depends on the method and setting. In cells and extracts the contact can be indirect. Some binding calls cover weakened binding; strength is not graded here. For part of these data: Where a sequence is shown, tags or fusion partners need not be part of it.

For experiment [1], the target named is endogenous APP of HEK cells (human (endogenous in HEK)) (UniProt P05067). Description: co-IP; lysates of transfected HEK cells (both partners co-expressed, or LRP10-HA alone with endogenous APP); 50 mM Tris pH 7.4, 150 mM NaCl, 1% NP-40; precipitation with anti-HA, anti-APP or anti-FLAG overnight at 4°C, protein A- or G-Sepharose; immunoblot.
Experiment [2] addresses GST-APP695 C-term (cytoplasmic region of APP) (UniProt P05067). Nature of the experiment: pull-down; GST fusion proteins (10 μg) immobilised on glutathione-Sepharose 4B beads, incubated 2 h at 4°C with 35S-labelled in vitro translated LRP10 in 20 mM Tris-HCl pH 7.4, 150 mM NaCl, 3 mM EDTA, 0.1% NP-40, 1 mM DTT; autoradiography; only the target purified.
For experiment [3], the target named is GST-APP N-term (extracellular/luminal region of APP695) (UniProt P05067). Described as above.

B1: HA-tagged LRP10 (LDLR-related protein 10), wild type (receptor, UniProt Q7Z4F1 17-713)
chain: HPDRIIFPNHACEDPPAVLLEVQGTLQRPLVRDSRTSPANCTWLILGSKEQTVTIRFQKLHLACGSERLTLRSPLQPLISLCEAPPSPLQLPGGNVTITYSYAGARAPMGQGFLLSYSQDWLMCLQEEFQCLNHRCVSAVQRCDGVDACGDGSDEAGCSSDPFPGLTPRPVPSLPCNVTLEDFYGVFSSPGYTHLASVSHPQSCHWLLDPHDGRRLAVRFTALDLGFGDAVHVYDGPGPPESSRLLRSLTHFSNGKAVTVETLSGQAVVSYHTVAWSNGRGFNATYHVRGYCLPWDRPCGLGSGLGAGEGLGERCYSEAQRCDGSWDCADGTDEEDCPGCPPGHFPCGAAGTSGATACYLPADRCNYQTFCADGADERRCRHCQPGNFRCRDEKCVYETWVCDGQPDCADGSDEWDCSYVLPRKVITAAVIGSLVCGLLLVIALGCTCKLYAIRTQEYSIFAPLSRMEAEIVQQQAPPSYGQLIAQGAIPPVEDFPTENPNDNSVLGNLRSLLQILRQDMTPGGGPGARRRQRGRLMRRLVRRLRRWGLLPRTNTPARASEARSQVTPSAAPLEALDGGTGPAREGGAVGGQDGEQAPPLPIKAPLPSASTSPAPTTVPEAPGPLPSLPLEPSLLSGVVQALRGRLLPSLGPPGPTRSPPGPHTAVLALEDEDDVLLVPLAEPGVWVAEAEDEPLLT
On to B1, for which, in experiment [1], the binding entry is reported as “binds”.

B2: ^35S-labeled in vitro-translated LRP10 (receptor, UniProt Q7Z4F1 1-713)
chain: MLLATLLLLLLGGALAHPDRIIFPNHACEDPPAVLLEVQGTLQRPLVRDSRTSPANCTWLILGSKEQTVTIRFQKLHLACGSERLTLRSPLQPLISLCEAPPSPLQLPGGNVTITYSYAGARAPMGQGFLLSYSQDWLMCLQEEFQCLNHRCVSAVQRCDGVDACGDGSDEAGCSSDPFPGLTPRPVPSLPCNVTLEDFYGVFSSPGYTHLASVSHPQSCHWLLDPHDGRRLAVRFTALDLGFGDAVHVYDGPGPPESSRLLRSLTHFSNGKAVTVETLSGQAVVSYHTVAWSNGRGFNATYHVRGYCLPWDRPCGLGSGLGAGEGLGERCYSEAQRCDGSWDCADGTDEEDCPGCPPGHFPCGAAGTSGATACYLPADRCNYQTFCADGADERRCRHCQPGNFRCRDEKCVYETWVCDGQPDCADGSDEWDCSYVLPRKVITAAVIGSLVCGLLLVIALGCTCKLYAIRTQEYSIFAPLSRMEAEIVQQQAPPSYGQLIAQGAIPPVEDFPTENPNDNSVLGNLRSLLQILRQDMTPGGGPGARRRQRGRLMRRLVRRLRRWGLLPRTNTPARASEARSQVTPSAAPLEALDGGTGPAREGGAVGGQDGEQAPPLPIKAPLPSASTSPAPTTVPEAPGPLPSLPLEPSLLSGVVQALRGRLLPSLGPPGPTRSPPGPHTAVLALEDEDDVLLVPLAEPGVWVAEAEDEPLLT
modifications: 35S-labelled methionine and cysteine
On to B2, for which the binding entry in experiment [2] is given as “binds weakly”; in experiment [3], “binds”.
